From US20170334995A1

Protein sequences, listed by entry. Tags and fused reporters are not part of them. Lines headed by an entry give the natural chain unless they say otherwise; changes in a name come on top.
UniProt Q15116: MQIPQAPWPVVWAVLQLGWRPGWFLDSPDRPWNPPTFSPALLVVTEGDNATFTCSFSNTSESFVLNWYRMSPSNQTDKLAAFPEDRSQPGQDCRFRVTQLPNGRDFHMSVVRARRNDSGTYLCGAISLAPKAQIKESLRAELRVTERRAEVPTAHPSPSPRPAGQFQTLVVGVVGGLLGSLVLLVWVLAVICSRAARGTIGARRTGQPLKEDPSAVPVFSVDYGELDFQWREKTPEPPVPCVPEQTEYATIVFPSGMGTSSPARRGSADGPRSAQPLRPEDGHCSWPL

Columns and labels:
[1] = biological target: human PD1 ECD (human) (UniProt Q15116); experiment: hybridoma screening
[2] = biological target: human PD1 ECD (human) (UniProt Q15116); experiment: SPR (ProteOn XPR36), antibody captured on Protein A/G, PD1 ECD as analyte
[3] = biological target: human PD1 ECD (human) (UniProt Q15116); experiment: SPR, summary sentence of Example 3

| Binder | binding [1] | binding [2] | binding [3] |
| --- | --- | --- | --- |
| 77E11 (antibody, V domains shown) VH: EVMLVESGGGLVKPGGSLKLSCTASGFTFSNSAMSWVRQTPERRLEWVAYISGGGGDTYYSDSVKGRFTISRDNAKDTLYLHMSSLRSEDTALHYCARHSNSNYYAMDYWGQGTSVTVSS VL: DIVLTQSPASLAVSLGQRATMSCRASENIDNSGISFMNWFQQKPGQPPKLLIYVASNQGSGVPARFSGSGSGTDFRLTIHPLEEDDTAMYFCQQSKEVPWTFGGGTKLEIK | binds | – | – |
| PD1-1 (antibody, human IgG4 S228P, kappa, V domains shown) VH: EVMLVESGGGLVQPGGSLRLSCTASGFTFSASAMSWVRQAPGKGLEWVAYISGGGGDTYYSSSVKGRFTISRDNAKNSLYLQMNSLRAEDTAVYYCARHSNVNYYAMDYWGQGTLVTVSS VL: EIVLTQSPATLSLSPGERATMSCRASENIDTSGISFMNWYQQKPGQAPKLLIYVASNQGSGIPARFSGSGSGTDFTLTISRLEPEDFAVYYCQQSKEVPWTFGQGTKLEIKR | – | binds | binds |
| PD1-2 (antibody, human IgG4 S228P, kappa, V domains shown) VH: EVMLVESGGGLVQPGGSLRLSCTASGFTFSASAMSWVRQAPGKGLEWVAYISGGGGDTYYSSSVKGRFTISRDNAKNSLYLQMNSLRAEDTAVYYCARHSNPNYYAMDYWGQGTLVTVSS VL: EIVLTQSPATLSLSPGERATMSCRASENIDTSGISFMNWYQQKPGQAPKLLIYVASNQGSGIPARFSGSGSGTDFTLTISRLEPEDFAVYYCQQSKEVPWTFGQGTKLEIKR | – | binds | binds |
| PD1-3 (antibody, human IgG4 S228P, kappa, V domains shown) VH: EVMLVESGGGLVQPGGSLRLSCTASGFTFSKSAMSWVRQAPGKGLEWVAYISGGGGDTYYSSSVKGRFTISRDNAKNSLYLQMNSLRAEDTAVYYCARHSNVNYYAMDYWGQGTLVTVSS VL: EIVLTQSPATLSLSPGERATMSCRASENIDVSGISFMNWYQQKPGQAPKLLIYVASNQGSGIPARFSGSGSGTDFTLTISRLEPEDFAVYYCQQSKEVPWTFGQGTKLEIKR | – | binds | binds |

These are yes or no findings as the source states them, for the method shown. Binding can be weak; no strength is given.
